Laboratory results taken from PubChem BioAssay AID540275 (National Center for Advancing Translational Sciences (NCATS), 2011).
In all, about 320,000 compounds went through this assay and about 620 (0.19%) were called active. The shares of active, inactive and inconclusive entries below differ from those in the screen. Rule as the data show it: active = activation above about 80%; inconclusive = between about 30% and that limit; inactive = weaker than that.

The chains behind the UniProt entries cited, without tags or fusion partners.
UniProt Q8NER1, whole entry, looked up: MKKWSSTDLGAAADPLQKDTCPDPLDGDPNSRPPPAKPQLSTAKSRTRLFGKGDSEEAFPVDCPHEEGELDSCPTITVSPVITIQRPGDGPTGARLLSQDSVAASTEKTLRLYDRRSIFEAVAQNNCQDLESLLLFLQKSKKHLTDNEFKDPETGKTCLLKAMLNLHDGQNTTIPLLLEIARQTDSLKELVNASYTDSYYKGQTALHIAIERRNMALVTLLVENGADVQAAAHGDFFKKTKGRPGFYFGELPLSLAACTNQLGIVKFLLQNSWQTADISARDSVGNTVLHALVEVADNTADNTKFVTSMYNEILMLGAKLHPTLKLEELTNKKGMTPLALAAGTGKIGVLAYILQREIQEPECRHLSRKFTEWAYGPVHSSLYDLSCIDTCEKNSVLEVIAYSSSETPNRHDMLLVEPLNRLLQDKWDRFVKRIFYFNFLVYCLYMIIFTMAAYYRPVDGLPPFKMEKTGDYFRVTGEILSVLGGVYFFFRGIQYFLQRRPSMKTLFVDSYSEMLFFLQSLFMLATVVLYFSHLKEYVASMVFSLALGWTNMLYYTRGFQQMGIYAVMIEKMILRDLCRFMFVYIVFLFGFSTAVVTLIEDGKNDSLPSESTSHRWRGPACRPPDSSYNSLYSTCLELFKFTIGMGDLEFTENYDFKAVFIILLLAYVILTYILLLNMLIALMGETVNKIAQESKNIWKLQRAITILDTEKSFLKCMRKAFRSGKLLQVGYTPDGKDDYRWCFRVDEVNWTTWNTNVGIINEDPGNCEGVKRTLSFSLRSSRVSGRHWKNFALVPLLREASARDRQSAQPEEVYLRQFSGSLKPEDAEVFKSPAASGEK

Biological target: Transient receptor potential cation channel subfamily V member 1 (Homo sapiens) (UniProt Q8NER1)
Experiment: HTS Assay for Compounds that Act as Agonists of the Vanilloid Receptor 1; also: 0% is about no effect
Details: TRPV1-expressing cells, Fluo-8 calcium influx, agonist mode; at 8.33 µM, active compounds read high
Summary of the method: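 Fluo-8 calcium influx in TRPV1-expressing cells, kinetic read (ex 480/em 520 nm). Compound added and read 3 min for agonist activity, followed by capsaicin at EC20 final and 2 min further read for enhancement.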

Compound	activation
O=C(CSc1nccn1-c1ccccc1)c1ccc(Cl)cc1	inconclusive: 57.8%
CCc1ccc(N2C(=O)CN(Cc3ccccc3)C2=S)cc1	inconclusive: 53.9%
O=C1c2ccccc2S(=O)(=O)c2cc(C(=O)N(c3ccccn3)c3ccccn3)ccc21	inactive: 12.6%
COc1ccc(C(=O)C2CCCN(Cc3cccn3-c3ccccn3)C2)c(OC)c1 (configuration not stated)	inactive: 1.86%
O=C(N/N=C/C=C/c1ccccc1)c1ccccn1	active: 96.6%
COc1ccc(C(=O)/C=C/c2ccccc2C(F)(F)F)cc1	inconclusive: 31.3%
COc1cc(/C=C2\SC(=O)N(CC(=O)Nc3ccccc3F)C2=O)cc(Cl)c1O	inconclusive: 49.3%
CCCCOc1ccc(/C=C/C(=O)NCCc2nc3ccccc3[nH]2)cc1	inconclusive: 36.9%
CC(=O)Nc1ccc(S(=O)(=O)N2CCSC2c2ccco2)cc1 (configuration not stated)	inactive: 3.29%
CCOC(=O)Cn1c(=NC(=O)c2sc3ccccc3c2Cl)sc2cc(S(N)(=O)=O)ccc21	inactive: -1.42%
COc1ccc(CNC(=O)CSCc2cccc(Cl)c2)cc1	inconclusive: 35.2%
COc1cc2nc(CN3CCN(C(c4ccccc4)c4ccccc4)CC3)[nH]c(=O)c2cc1OC	inactive: 0.232%
CC(=O)Nc1ccc(C(=O)N/N=C/c2ccc(F)cc2)cc1	inactive: 6.71%
CCOc1cc(C(=O)Nc2cc(C)ccc2OC)ccc1OCC(=O)N1CCCCC1	inactive: 1.63%
Cc1ccc2c(CN3CC(C)CC(C)C3)cc(=O)oc2c1 (configuration not stated)	inconclusive: 39.4%
C/C(CC(=O)Nc1ccc2c(c1)OCCO2)=N\NC(=O)COc1ccccc1	inactive: -0.909%
O=C(NCC1CCN(S(=O)(=O)c2ccccc2)CC1)Nc1ccc(F)cc1	inconclusive: 53.5%
Cc1ccc(O)c(/C=N/NC(=O)C2=NNC(c3ccccc3)(c3ccccc3)C2)c1	inconclusive: 46.6%
Cc1ccc(-n2c(SCC(=O)NC3CCS(=O)(=O)C3)nc3ccccc3c2=O)cc1C (configuration not stated)	inactive: -2.03%

4 entries out of the list, sorted by heavy-atom count, ascending.
Compound	activation
CC(=O)Nc1ccc(C(=O)N/N=C/c2ccc(F)cc2)cc1	inactive: 6.71%
Cc1ccc(O)c(/C=N/NC(=O)C2=NNC(c3ccccc3)(c3ccccc3)C2)c1	inconclusive: 46.6%
Cc1ccc(-n2c(SCC(=O)NC3CCS(=O)(=O)C3)nc3ccccc3c2=O)cc1C (configuration not stated)	inactive: -2.03%
O=C1c2ccccc2S(=O)(=O)c2cc(C(=O)N(c3ccccn3)c3ccccn3)ccc21	inactive: 12.6%

Remaining list, next part.

Compound	activation
COc1ccc(/C=N/Nc2nc(NCc3ccco3)nc(Nc3ccc(OC)cc3)n2)cc1	inconclusive: 54.4%
CCN1CCc2nc3ccccc3c(C(=O)Nc3ccc(F)cc3)c2C1	inactive: -0.376%
O=C(CN(c1cccc(C(F)(F)F)c1)S(=O)(=O)c1ccc(Cl)c([N+](=O)[O-])c1)NCc1ccccc1	inconclusive: 40.7%
O=C(NCc1ccc(F)cc1)C1CCCN(S(=O)(=O)c2ccc(Br)s2)C1 (configuration not stated)	inconclusive: 31%
COc1cc(Cl)c(C)cc1NC(=O)Cc1ccc(OC)c(OC)c1	active: 89.2%
Nc1nc(SCC(=O)c2ccc(Oc3ccccc3)cc2)n[nH]1	inconclusive: 52.1%
COc1ccccc1N/C=C/c1onc(C)c1[N+](=O)[O-]	inconclusive: 34.2%
Cc1ccc(-c2n[nH]c(=S)n2/N=C/c2ccc(C)o2)cc1	inactive: 1.54%
CC(C(=O)NCC1CCCCC1)N(C)Cc1ccc(Br)cc1 (configuration not stated)	inconclusive: 39.5%
O=C(NCc1ccc(F)cc1)C(=O)Nc1nc(C23CC4CC(CC(C4)C2)C3)cs1	inconclusive: 57.1%
OCCN1CCN(c2nc(-c3ccccc3)c3cc(Cl)ccc3n2)CC1	inactive: 5.57%
CC(NC(=S)NC1CCCCC1)c1ccc(C(C)(C)C)cc1 (configuration not stated)	inconclusive: 58.6%
CC(C)(C)[C@@H]1CCC(=O)N(CC[C@H](Sc2ccccc2)c2ccccc2)CC1	inconclusive: 51.1%
Cc1cccc(C)c1OCCN1C(=O)NC(C)(c2ccccc2)C1=O (configuration not stated)	inactive: 9.89%
C=C(Cl)COc1ccc2c(CCCC)cc(=O)oc2c1	inconclusive: 34.2%
CC1CCc2sc(C(=O)OCC(=O)NCc3ccccc3)cc2C1 (configuration not stated)	inconclusive: 42.7%
COc1cccc(CNS(=O)(=O)c2cc3c(cc2Cl)NC(=O)CO3)c1	inactive: 3.01%
CC(C)(C)c1ccc(C(=O)Nc2ccc3c(c2)C(=O)NC3=O)cc1	active: 85.5%
Clc1ccc2c(c1)C(N1CCNCC1)Cc1ccccc1S2 (configuration not stated)	inactive: 0.203%

Compound	activation
CCCCNC(=O)N1CCCC(C(=O)c2cc(C)c(OC)c(C)c2)C1 (configuration not stated)	inconclusive: 72.4%
Cc1ccc2oc(-c3ccco3)nc2c1	inactive: 8.52%
CCc1ccc(N2CC(C(=O)Nc3ccccc3F)CC2=O)cc1 (configuration not stated)	inconclusive: 68.9%
CC(=O)/C=C1/C(=O)Nc2ccccc21	inactive: 1.06%
Cc1ccc(CC(=O)N2CCN(c3ccc([N+](=O)[O-])cc3)CC2)cc1	inconclusive: 42.7%
Cc1noc(C)c1C(=O)OCC(=O)NCc1ccccc1	inactive: -0.266%
Cc1ccc(CN2C(=O)N/C(=C\c3ccc(N4CCOCC4)cc3)C2=O)cc1	inactive: 12.4%
CC(C)(CO)CNC(=O)CCc1nnc(-c2ccc(-c3ccccc3)cc2)o1	inconclusive: 40.1%
O=C(Nc1cccc(-c2cn3ccccc3n2)c1)C1CC1	inactive: -3.56%
COc1ccc(Br)cc1CN(C)C(C)C(=O)Nc1cc([N+](=O)[O-])ccc1OC (configuration not stated)	inconclusive: 38.2%
O=C(CSc1nc(C2CCCCC2)nc2ccccc12)NCc1ccc2c(c1)OCO2	inconclusive: 51.8%
CCN(CC)S(=O)(=O)c1ccc(OC)c(NC(=O)OCc2ccccc2)c1	inconclusive: 33.3%
O=[N+]([O-])c1cccc(-c2nnc(-c3ccc4c(c3)OCO4)o2)c1	inconclusive: 55%
Cc1coc2c1C(=O)C(=O)c1c-2ccc2c1CCCC2(C)C	inactive: 15.4%
CC(C)c1ccc(S(=O)(=O)N2CCN(C(=S)NCc3ccco3)CC2)cc1	inconclusive: 32.5%
Cn1nc(-c2ccccc2)cc1NC(=O)c1cccs1	inconclusive: 37.2%
CCN(CC(=O)NCc1ccc(Cl)cc1)C(=O)c1oc2ccccc2c1C	inconclusive: 54.3%
O=C(Nc1ccccc1F)c1ccc([N+](=O)[O-])s1	inconclusive: 51.5%
O=C(Nc1ccc(CN2CCOCC2)cc1)c1cc2ccccn2n1	inconclusive: 43.6%
